Binding data for one substance are collected here from PMC4838909.

Chains of the proteins cited; added tags and fusions are not shown.
UniProt Q676U5: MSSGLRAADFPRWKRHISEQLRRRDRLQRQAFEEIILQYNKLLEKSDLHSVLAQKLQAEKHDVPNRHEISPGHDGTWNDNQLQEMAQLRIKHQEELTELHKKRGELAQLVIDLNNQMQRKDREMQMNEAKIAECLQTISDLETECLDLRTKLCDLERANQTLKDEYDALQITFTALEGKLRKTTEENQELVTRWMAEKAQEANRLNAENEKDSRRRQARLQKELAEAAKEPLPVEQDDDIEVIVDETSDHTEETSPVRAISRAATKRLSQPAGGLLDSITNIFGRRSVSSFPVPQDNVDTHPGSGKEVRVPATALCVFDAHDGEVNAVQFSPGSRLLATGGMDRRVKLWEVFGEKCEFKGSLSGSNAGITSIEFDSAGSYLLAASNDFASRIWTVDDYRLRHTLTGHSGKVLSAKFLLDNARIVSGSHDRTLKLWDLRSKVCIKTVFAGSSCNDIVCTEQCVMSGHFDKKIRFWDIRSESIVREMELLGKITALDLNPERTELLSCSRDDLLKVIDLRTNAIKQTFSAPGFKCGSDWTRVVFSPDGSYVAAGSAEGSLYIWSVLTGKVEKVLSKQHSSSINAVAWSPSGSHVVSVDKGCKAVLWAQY

These are yes or no findings as the source states them, for the method shown. In cells and extracts the contact can be indirect. Some results given as binding are weak or reduced against the parent protein; the word gives no strength. Tags and fused reporters may be left off the sequences shown.

The assay has as its target T1, Flag-Ppp1r36 (mouse) (UniProt D3Z0R2).
T1 sequence: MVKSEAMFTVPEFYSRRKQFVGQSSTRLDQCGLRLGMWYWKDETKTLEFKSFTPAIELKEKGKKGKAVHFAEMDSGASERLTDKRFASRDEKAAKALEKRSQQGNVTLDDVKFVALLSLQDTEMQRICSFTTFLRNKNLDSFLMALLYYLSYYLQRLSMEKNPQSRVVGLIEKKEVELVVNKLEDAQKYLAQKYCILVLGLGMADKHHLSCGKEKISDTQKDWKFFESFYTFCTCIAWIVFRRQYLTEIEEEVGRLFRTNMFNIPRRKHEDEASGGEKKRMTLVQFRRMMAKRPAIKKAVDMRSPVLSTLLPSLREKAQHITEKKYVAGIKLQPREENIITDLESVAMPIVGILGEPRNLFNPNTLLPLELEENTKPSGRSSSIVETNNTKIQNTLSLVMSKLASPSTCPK
Kind of assay: co-IP; HEK293T cells transfected and cultured in HBSS medium for 2 hrs before harvest; RIPA lysates (50 mM Tris pH7.4, 150 mM NaCl, 0.5% NP40, 1 mM EDTA); anti-Flag antibody and Protein G Agarose overnight at 4 °C, washed four times; immunoblot with anti-Atg16L1 or anti-Myc. For orientation: Immunoblotting shows a protein as a band on a membrane.

On to “endogenous Atg16L1 (from UniProt Q676U5 1-607)”, for which the binding result is reported as “binds”.
